From publication PMC11341870 come the findings set out here.

For the experiment, the target named is PfpC_(EC039), phosphatase of the KKP_(EC039) module of E. coli 15EC039 (E. coli 15EC039). The experiment can be described thus: pull-down; His-PfpC_(EC039) and Gp59 or Gp59^G32E co-expressed from one pETDuet plasmid in E. coli; complex purified on Ni-NTA resin and eluted with imidazole.

No constants are given. Whether binding was seen depends on the method and setting. In cells and extracts the contact can be indirect. Binding calls can cover weak binding; strength is not graded here.

B1: Gp59, phage T4 replication-related helicase loader (protein, UniProt P13342 1-217)
chain: MIKLRMPAGGERYIDGKSVYKLYLMIKQHMNGKYDVIKYNWCMRVSDAAYQKRRDKYFFQKLSEKYKLKELALIFISNLVANQDAWIGDISDADALVFYREYIGRLKQIKFKFEEDIRNIYYFSKKVEVSAFKEIFEYNPKVQSSYIFKLLQSNIISFETFILLDSFLNIIDKHDEQTDNLVWNNYSIKLKAYRKILNIDSQKAKNVFIETVKSCKY
Regarding B1, the binding entry is “binds”.
